Literature values in US6878524B2, “Reagents and methods for detection and characterization of protein-protein interactions, nuclear export and localization sequences and inducible Gal4p-mediated gene expression in yeast” (priority 2001, dated 2005).
At least one structure is not confirmed: it was looked up by name or label, or the drawing left a doubt.

System: GAL genes
Settings: FK506 alone; Biggar and Crabtree 2001; cited from earlier work

## C=CC[C@@H]1/C=C(\C)C[C@H](C)C[C@H](OC)[C@H]2O[C@@](O)(C(=O)C(=O)N3CCCC[C@H]3C(=O)O[C@H](/C(C)=C/[C@@H]3CC[C@@H](O)[C@H](OC)C3)[C@H](C)[C@@H](O)CC1=O)[C@H](C)C[C@@H]2OC [FK506]
  Activation of transcription of the GAL genes by FK506 by itself: does not activate transcription of the GAL genes
